These are yes or no findings as the source states them, for the method shown. In cells and extracts the contact can be indirect. Some results given as binding are weak or reduced against the parent protein; the word gives no strength. Tags and fused reporters may be left off the sequences shown.
Target: AHA1-Cluc (Arabidopsis thaliana) (UniProt P20649)
Test: split reporter

Sequences of proteins named here, by UniProt entry; tags and fusion partners are left off.
UniProt P20649: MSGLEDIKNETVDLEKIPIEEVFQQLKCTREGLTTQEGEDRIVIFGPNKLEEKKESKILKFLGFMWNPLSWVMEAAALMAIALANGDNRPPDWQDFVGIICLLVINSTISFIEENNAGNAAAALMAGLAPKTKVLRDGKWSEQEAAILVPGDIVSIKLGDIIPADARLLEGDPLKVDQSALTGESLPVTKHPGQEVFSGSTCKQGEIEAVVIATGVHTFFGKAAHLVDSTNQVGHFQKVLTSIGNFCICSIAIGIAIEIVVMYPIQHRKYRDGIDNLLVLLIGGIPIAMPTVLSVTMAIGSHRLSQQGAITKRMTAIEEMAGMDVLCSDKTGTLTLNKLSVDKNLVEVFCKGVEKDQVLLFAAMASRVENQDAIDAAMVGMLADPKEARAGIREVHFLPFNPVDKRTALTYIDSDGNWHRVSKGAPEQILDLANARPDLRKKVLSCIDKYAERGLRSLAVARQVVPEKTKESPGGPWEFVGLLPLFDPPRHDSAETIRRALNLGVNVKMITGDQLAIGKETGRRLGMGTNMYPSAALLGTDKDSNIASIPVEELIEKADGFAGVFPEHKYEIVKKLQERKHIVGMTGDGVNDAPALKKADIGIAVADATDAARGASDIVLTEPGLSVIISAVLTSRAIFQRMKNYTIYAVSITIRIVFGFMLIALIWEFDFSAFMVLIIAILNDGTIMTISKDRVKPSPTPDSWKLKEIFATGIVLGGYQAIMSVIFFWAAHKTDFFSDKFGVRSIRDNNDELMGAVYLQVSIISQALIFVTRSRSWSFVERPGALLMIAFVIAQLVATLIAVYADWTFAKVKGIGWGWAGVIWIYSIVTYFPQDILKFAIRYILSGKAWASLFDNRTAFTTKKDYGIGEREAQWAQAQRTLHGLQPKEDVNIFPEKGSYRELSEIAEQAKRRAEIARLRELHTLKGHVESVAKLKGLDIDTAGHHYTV

B1: GRF2-Nluc (protein, UniProt Q01525 1-259)
chain: MASGREEFVYMAKLAEQAERYEEMVEFMEKVSAAVDGDELTVEERNLLSVAYKNVIGARRASWRIISSIEQKEESRGNDDHVTAIREYRSKIETELSGICDGILKLLDSRLIPAAASGDSKVFYLKMKGDYHRYLAEFKTGQERKDAAEHTLAAYKSAQDIANAELAPTHPIRLGLALNFSVFYYEILNSPDRACNLAKQAFDEAIAELDTLGEESYKDSTLIMQLLRDNLTLWTSDMQDDAADEIKEAAAPKPTEEQQ
binding: binds

— doi:10.1101/2025.08.16.670655
